Values quoted from earlier work as cited in patent US20100179220A1, “METHOD FOR THE TREATMENT OF TINNITUS” (Merck Patent GmbH, priority 2006, published 2010).
At least one compound was matched to its structure with a doubt left.

System: patients with tinnitus
Details: literature studies; only baclofen and caroverine double blind placebo-controlled; cited from earlier work

## COCCOC(=O)C1=C(C)NC(C)=C(C(=O)OC(C)C)C1c1cccc([N+](=O)[O-])c1 (stereo not shown) [nimodipine]
  improvement of tinnitus: 16.13%
